Values of other authors in patent US5350748A, “3-thio or amino substituted-benzo[b]thiophene-2-carboxamides and 3-oxygen, thio, or amino substituted-benzofuran-2-carboxamides as inhibitors of cell adhesion” (Warner-Lambert Company, priority 1993, dated 1994).

Tested on: TPA-mediated CD4 down regulation and HIV expression in HIV-infected cells
Conditions: Hamamoto et al. 1989; cited from earlier work

CN[C@@H]1C[C@H]2O[C@@](C)([C@@H]1OC)n1c3ccccc3c3c4c(c5c6ccccc6n2c5c31)C(=O)NC4 [Staurosporine, staurosporine]
inhibition of TPA-mediated CD4 down regulation and augmentation of HIV expression: effective TPA inhibitor for both of these actions
